This is an account of results in paper doi:10.1101/769059.

Amino acid sequences for entries named in this document (tags omitted).
UniProt Q61194: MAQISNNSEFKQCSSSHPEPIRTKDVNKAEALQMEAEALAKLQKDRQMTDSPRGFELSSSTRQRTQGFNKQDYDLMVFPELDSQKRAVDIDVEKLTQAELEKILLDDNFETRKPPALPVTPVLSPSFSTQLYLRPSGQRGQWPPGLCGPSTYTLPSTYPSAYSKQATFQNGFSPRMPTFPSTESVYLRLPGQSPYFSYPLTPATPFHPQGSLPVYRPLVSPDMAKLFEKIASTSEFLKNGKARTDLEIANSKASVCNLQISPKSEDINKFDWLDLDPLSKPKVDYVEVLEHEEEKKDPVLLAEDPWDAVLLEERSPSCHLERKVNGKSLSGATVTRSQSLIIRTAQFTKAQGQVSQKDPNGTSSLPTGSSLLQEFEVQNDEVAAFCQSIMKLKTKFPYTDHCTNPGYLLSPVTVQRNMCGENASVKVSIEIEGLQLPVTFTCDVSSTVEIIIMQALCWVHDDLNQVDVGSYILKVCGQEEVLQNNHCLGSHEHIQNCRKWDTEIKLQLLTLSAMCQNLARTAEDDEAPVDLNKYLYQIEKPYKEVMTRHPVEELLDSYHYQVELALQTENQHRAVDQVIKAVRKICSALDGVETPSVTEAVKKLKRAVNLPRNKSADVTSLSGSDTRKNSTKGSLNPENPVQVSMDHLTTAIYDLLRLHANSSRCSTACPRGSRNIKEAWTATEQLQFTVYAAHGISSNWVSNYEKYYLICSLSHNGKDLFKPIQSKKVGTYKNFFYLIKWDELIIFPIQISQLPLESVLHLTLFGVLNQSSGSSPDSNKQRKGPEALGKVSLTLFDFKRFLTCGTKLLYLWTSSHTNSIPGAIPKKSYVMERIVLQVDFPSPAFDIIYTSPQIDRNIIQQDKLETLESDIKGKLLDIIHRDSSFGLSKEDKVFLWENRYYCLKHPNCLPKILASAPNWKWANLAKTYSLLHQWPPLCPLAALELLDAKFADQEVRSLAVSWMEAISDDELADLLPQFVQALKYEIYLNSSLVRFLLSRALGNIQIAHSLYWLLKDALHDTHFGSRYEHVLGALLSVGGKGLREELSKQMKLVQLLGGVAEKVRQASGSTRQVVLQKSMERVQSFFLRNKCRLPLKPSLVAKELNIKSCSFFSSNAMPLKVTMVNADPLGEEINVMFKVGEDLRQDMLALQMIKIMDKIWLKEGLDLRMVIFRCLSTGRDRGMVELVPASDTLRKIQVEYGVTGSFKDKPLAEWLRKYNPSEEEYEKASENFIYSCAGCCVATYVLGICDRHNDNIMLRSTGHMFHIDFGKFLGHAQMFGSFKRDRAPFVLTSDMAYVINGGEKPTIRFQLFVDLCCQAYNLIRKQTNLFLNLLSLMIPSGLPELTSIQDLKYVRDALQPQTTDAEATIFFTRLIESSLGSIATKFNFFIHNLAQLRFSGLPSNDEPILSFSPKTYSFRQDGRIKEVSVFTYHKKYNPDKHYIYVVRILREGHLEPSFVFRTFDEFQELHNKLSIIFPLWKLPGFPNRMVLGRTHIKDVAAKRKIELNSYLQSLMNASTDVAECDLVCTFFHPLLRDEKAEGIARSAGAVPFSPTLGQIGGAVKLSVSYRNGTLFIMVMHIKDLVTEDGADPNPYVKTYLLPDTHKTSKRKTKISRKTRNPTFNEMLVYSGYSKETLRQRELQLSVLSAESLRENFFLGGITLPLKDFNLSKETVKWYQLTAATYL
UniProt Q9CQY1: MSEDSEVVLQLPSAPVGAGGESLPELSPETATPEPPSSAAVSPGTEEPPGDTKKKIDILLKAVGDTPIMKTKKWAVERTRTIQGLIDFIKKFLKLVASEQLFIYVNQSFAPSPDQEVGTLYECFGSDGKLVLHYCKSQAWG

Where two headings read alike, the source gives them in different places. These are yes or no findings as the source states them, for the method shown. Binding seen in cells or lysates may run through a third protein. Here binding means that the protein was enriched with, or labelled near, the bait; the list need not be complete. For some assays here: A no says only that the protein was not detected with the bait. For some assays here: Tags and fused reporters may be left off the sequences shown.

What all share (assay): affinity purification with mass spectrometry
For assay [1], the target named is wild-type GFP-ATG5 (mouse) (UniProt Q99J83).
Another assay deals with T1, K130R GFP-ATG5 (mouse) (UniProt Q99J83).
T1 sequence: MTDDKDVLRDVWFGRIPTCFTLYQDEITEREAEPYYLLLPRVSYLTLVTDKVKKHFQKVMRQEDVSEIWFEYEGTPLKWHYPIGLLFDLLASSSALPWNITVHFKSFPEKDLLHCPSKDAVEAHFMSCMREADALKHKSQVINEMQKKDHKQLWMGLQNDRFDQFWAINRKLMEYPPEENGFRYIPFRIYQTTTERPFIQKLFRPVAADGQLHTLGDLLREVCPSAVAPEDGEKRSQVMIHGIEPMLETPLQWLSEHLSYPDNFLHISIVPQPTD

Assay [2] addresses wild-type GFP-ATG5 (mouse) (UniProt Q99J83). The source holds these as a separate data set.

With “phosphatidylinositol 4-phosphate 3-kinase C2 domain-containing subunit alpha (from UniProt Q61194 1-1686) (enzyme)”, the results for the binding entry (in assay [1]; with K130R GFP-ATG5 (mouse); in assay [2]) were “binds”, “no binding” and “binds”, respectively.
As to ATG12 (from UniProt Q9CQY1 1-141), in assay [2], the binding entry is recorded as “binds”.

B1: ATG7 (protein, UniProt Q9D906 1-698)
chain: MGDPGLAKLQFAPFNSALDVGFWHELTQKKLNEYRLDEAPKDIKGYYYNGDSAGLPTRLTLEFSAFDMSASTPAHCCPAMGTLHNTNTLEAFKTADKKLLLEQSANEIWEAIKSGAALENPMLLNKFLLLTFADLKKYHFYYWFCCPALCLPESIPLIRGPVSLDQRLSPKQIQALEHAYDDLCRAEGVTALPYFLFKYDDDTVLVSLLKHYSDFFQGQRTKITVGVYDPCNLAQYPGWPLRNFLVLAAHRWSGSFQSVEVLCFRDRTMQGARDVTHSIIFEVKLPEMAFSPDCPKAVGWEKNQKGGMGPRMVNLSGCMDPKRLAESSVDLNLKLMCWRLVPTLDLDKVVSVKCLLLGAGTLGCNVARTLMGWGVRHVTFVDNAKISYSNPVRQPLYEFEDCLGGGKPKALAAAERLQKIFPGVNARGFNMSIPMPGHPVNFSDVTMEQARRDVEQLEQLIDNHDVIFLLMDTRESRWLPTVIAASKRKLVINAALGFDTFVVMRHGLKKPKQQGAGDLCPSHLVAPADLGSSLFANIPGYKLGCYFCNDVVAPGDSTRDRTLDQQCTVSRPGLAVIAGALAVELMVSVLQHPEGGYAIASSSDDRMNEPPTSLGLVPHQIRGFLSRFDNVLPVSLAFDKCTACSPKVLDQYEREGFTFLAKVFNSSHSFLEDLTGLTLLHQETQAAEIWDMSDEETV
For B1, the binding entry in assay [1] and in assay [2] was “binds” each time.

B2: TECPR1 (protein, UniProt Q80VP0 1-1166)
chain: MPTSVLWAVDLFGRVYTLSTAGQYWELCKDVQLEFKRVSAATQCCWGIAGDNQVYLYVCSSDVPIRHREEAYENQRWNPMGGFCEKLLPSDRWPWSDVSGLQHRPLDGVALPSPHWEWESDWYVDENFGGEPTEKGGWTYAMDFPATYTRDKKWNSCVRRRKWIRYRRYKSRDSWAKIPSKDDPKELPDPFNDLSVGGWEITEEPVGRLSVWAVSLQGKVWYREDVSHPNPEGSSWSLVETPGEVVQISCGPHDLIWATLWEGQALVREGVCRNNPKGSYWSMVEPPGSENGIMHVSAGVSVVWAITKDRKVWFRRGVNSHNPCGTSWIEMVGEMTMVNVGLNDQVWGISCEDRAVYFRQGVTPSELSGKTWKAIVVGRESDRSHSGSSSSLLSAGCFFGDEVRGSGTESAPSDTDASLEVERQGPEQPLPKEALDNSTNLKGSLSKGHETSGNTDHSTENACLTEGKEKAPETSRSDECRGPASTPAELPWTNIDLKEPKKVSNQPAAGFPETAGLSSLGLFPMGMEEPYGADDHPLWAWVSGGACAVEAGSTLKWFTIQSGLSPSVQTLSLSITPAQTAAWRKQIFQQLTERTKRELESFRHYEQAVEQSVWVKTGALQWWCDWKPHKWVDVRVALEQFTGHDGARDSILFIYYVVHEEKKYLHVFLNEVTVLVPVLNEAKHSFALYTPERTRQRWPVRLAAATEQDMNDWLALLSLSCCESRKVHGRPSPQAIWSVTCKGDIFVSEPSPDLEARERLLPCDQMFWRQMGGHLRIIEANSRGVVWGIGYDHTAWVYTGGYGGGCFQGLASSTSNIYTQSDVKSVYIYENQRWNPVTGYTSRGLPTDRFMWSDVTGLQECTKAGTKPPSLQWTWVSDWYVDFSVPGGTDQEGWQYASDFPASYHGYKTMKDFVRRRCWARKCKLVTSGPWLEVAPITLSDVSIIPESAHADGRGHNVALWAVSDKGDVLCRLGVSELNPAGSSWLHVGTDQPFASVSIGACYQVWAVARDGSAFYRGSVSPSQPAGDCWYHIPSPPKQKLTQVSVGQTSVYALDENGNLWYRAGITPSYPQGSSWEHVSNNVRKVSVGPLDQVWVIANKVQGSHGLSRGTVCRRMGVQPREPKGQGWDYGIGGGWDHISVRANATRVPRNMSRDREARGPGPVCC
In the case of B2, the binding entry (in assay [1]; in the assay with K130R GFP-ATG5 (mouse); in assay [2]) was “binds” in each case.

B3: ATG16L2 (protein, UniProt Q6KAU8 1-623)
chain: MAGPGAPCDPCAPAAVWKRHIVRQLRHRDRTQKALFLELVPAYNHLLEKAELLAKFSEKLKSEPKDAISTRHEDWREEVSGTGPDQVSSPASLRVKWQQEKKGLQLVCGEMAYQVVKKSAALDTLQSQLEERQDRLEALQACVVQLQEARAQQSRQLEERQAENAAQREAYETLLQQAVHQEAALRRLQEEARDLLEQLVQRKARAAAERNLRNERRERANQALVSQELKKAAKRTVSISEIPNTLEDGTKEETVALAPAALPEFSESETCEKWKRPFRSASATSLTLSRCVDVVKGLLDFKKRRGHSVGGAPEQRYQSIPVCVSAQIPSQAQDVLDAHLSEVNAVCFGPNSSLLATGGADRLIHLWNVVGGRLEANQTLEGAGGSITSVDFDPSGSQVLAATYNQAAQLWKVGETQSKETLSGHKDKVTAAKFKLTRHQAVTGSRDRTVKEWDLGRAYCSRTINVLSYCNDVVCGDHIIISGHNDQKIRFWDSRGPHCIQVIPVQGRVTSLHLSYDQLHLLSCSRDNTLKVIDLRISNIRQVFRADGFKCSSDWTKAVFSPDRSYALAGSSNGDLYIWDVNTGKLETSLQGPHCTAVNAVAWCFSGNHVVSVDQGRKVVLWH
In the case of B3, the binding result (in the assay with K130R GFP-ATG5 (mouse); in assay [2]) was “binds” each time.

B4: ATG13 (protein, UniProt Q91YI1 1-516)
chain: METELSSQDRKDLDKFIKFFALKTVQVIVQARLGEKICTRSSSSPTGSDWFNLAIKDIPEVTHEAKKALSGQLPAVGRSMCVEISLKTSEGDSMELEIWCLEMNEKCDKEIKVSYTVYNRLSLLLKSLLAITRVTPAYRLSRKQGHEYVILYRIYFGEVQLNGLGEGFQTVRVGTVGTPVGTLTLSCAYRINLAFMSTRQFERTPPIMGIIIDHFVDRPYPSSSPMHPCNYRTAEDAGVAYPSVEDSQEVCTTSFSTSPPSQLSSSRLSYQPAVLGLGSADLAYPVVFTAGLNTTHAHQLMVPGKEGGVTLAPSHPTHGAQADPERLVMHMPSDGTHCAATPSSSEDTETVSNSSEGRASPHDILETIFVRKVGAFVNKPINQVTVTSLDIPFAMFAPKNLELEDADPMVNPPESPETTSPLHGSLHSDGSSGGSGGSTHDDFVMIDFKPAFSKDDILPMDLGTFYREFQNPPQLSSLSIDFGAQSMAEDLDSLPEKLAVHEKNVREFDAFVETLQ
Consider B4, for which the binding entry (in assay [1]; with K130R GFP-ATG5 (mouse)) was “no binding” in each case.

B5: ATG101 (protein, UniProt Q9D8Z6 1-218)
chain: MNCRSEVLEVSVEGRQVEEAMLAVLHTVLLHRSTGKFHYKKEGTYSIGTVGIQDVDCDFIDFTYVRVSSEELDRALRKVVGEFKDALRNSGGDGLGQMSLEFYQKKKSRWPFSDECIPWEVWTVKVHVVALATEQERQICREKVGEKLCEKIINIVEVMSRHEYLPKMPTQSEVDNVFDTGLRDVQPYLYKISFQITEALGTSVTTTMRRLIKDTLAL
As to B5, the binding entry (in assay [1]; with K130R GFP-ATG5 (mouse)) was “no binding” throughout.

B6: cyclin G-associated kinase (protein, UniProt Q99KY4 1-1305)
chain: MSLLQSALDFLAGPGSLGGAAGRDQSDFVGQTVELGELRLRVRRVLAEGGFAFVYEAQDLGSGREYALKRLLSNEEEKNRAIIQEVCFLKKLSGHPNIVQFCSAASIGKEESDTGQAEFLLLTELCKGQLVEFLKRVECKGPLSCDSILKIFYQTCRAVQHMHRQKPPIIHRDLKVENLLLSNQGTIKLCDFGSATTISHYPDYSWSAQKRAMVEEEITRNTTPMYRTPEIVDLYSNFPIGEKQDIWALGCILYLLCFRQHPFEDGAKLRIVNGKYSIPVNDTRYTVFHDLIRAMLKVNPVERLSIAEVVRQLQEIAAARNVNPKAPITELLEQNGGYGNSGPSRAQPPCGGTVNSSGVLALAEYDQPYGGFLDILRGGTERLFTNLKDTSSKVIQSVANYAKGDLDISYITSRIAVMSFPAEGVESAIKNNIEDVRMFLDAKHPGHYAVYNLSPRIYRASKFHNRVTECGWAVRRAPHLHSLYTLCRSMHAWLREDHRNVCVVHCMDGRAASAVAVCAFLCFCRLFSTAEAAVYMFSMKRCPPGIWPSHKRYIEYVCDMVAEEPITPHSKPMLVKSVVMTPVPLFSKQRNGCRPFCEVYVGEERVTTTSQEYDRMKEFKIEDGKAVIPLGVTVQGDVLIIIYHARATLGGRLQAKMASMKMFQIQFHTGFVPRNATTVKFAKYDLDACDIQEKYPDLFQVNLEVEVEPRDRPSREAPPWENTSLRGLNPKILFSNREEQQDILSKFGKPELPRQPGSTAQYDAEAGSPEAEITESDSPQSSSTDTNHFLHTLDWQEEKEPETGLDNTSPKESQSVLIADGDGSEVSDEEEASFPSEERKPGAGEDTPRLAAGTKQQDLIFDVGMLAAPQEPVQPEEGVDLLGLHSEGDLRPAAPLQACGVPSSNTDLLSCLLEPSDAAQVGPPGDLLGGEAPLLLASPVSPLGLQNNLQGKVPDTVDPFDQFLLSSNSDTQPCSKPDLFGEFLNSDSVASSTAFPSTHSAPPPSCSTAFLHLGDLPAEPSKVIASSSHPDLLGGWDTWADTATPGPASIPVPEGTLFSSAGHPAPPGPNPSQTKSQNLDPFADLSDLSSSLQGLPAGLPAGGFVGAPAPTQKSNSPWQANRPTAPGTSWTPQAKPAPRASEQLRSHFSVIGAREERGVRVPSFAQKPKVSENDFEDLLPNQGFSKSDKKGPKTMAEMRKQELARDTDPLKLKLLDWIEGKERNIRALLSTLHTVLWDGESRWTPVSMADLVTPEQVKKQYRRAVLVVHPDKATGQPYEQYAKMIFMELNDAWSEFENQGSRPLF
B6: the binding result in assay [1] is on record as “binds”; in the assay with K130R GFP-ATG5 (mouse), “no binding”.

B7: clathrin light chain (protein, UniProt O08585 1-235)
chain: MAELDPFGAPAGAPGGPALGNGVAGAGEEDPAAAFLAQQESEIAGIENDEAFAILDGGAPGRATRRAAGGPDAVDGVMNGEYYQESNGPTDSYAAISEVDRLQSEPESIRKWREEQTERLEALDANSRKQEAEWKEKAIKELEEWYARQDEQLQKTKANNRVADEAFYKQPFADLIGYVAAEEAFVNDIDESSPGTEWERVARLCDFNPKSSKQAKDVSRMRSVLISLKQAPLVH
B7: the binding result in assay [1] is listed as “binds”; with K130R GFP-ATG5 (mouse), “no binding”; in assay [2], “binds”.
